Protein sequences, listed by entry. Tags and fused reporters are not part of them.
UniProt Q86WV6, whole entry R71H/G230A/H232R/R293Q: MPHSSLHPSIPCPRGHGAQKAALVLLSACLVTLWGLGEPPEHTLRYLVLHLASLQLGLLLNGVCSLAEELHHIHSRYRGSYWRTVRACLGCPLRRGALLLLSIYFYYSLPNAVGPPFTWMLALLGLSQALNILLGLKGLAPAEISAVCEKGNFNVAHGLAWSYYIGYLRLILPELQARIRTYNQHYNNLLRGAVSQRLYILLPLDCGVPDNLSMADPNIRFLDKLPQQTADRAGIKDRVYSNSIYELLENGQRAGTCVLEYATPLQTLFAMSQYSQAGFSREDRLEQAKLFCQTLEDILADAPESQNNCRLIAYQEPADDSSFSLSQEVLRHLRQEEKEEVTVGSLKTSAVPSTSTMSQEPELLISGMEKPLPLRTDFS

According to US20230250060A1 (IFM Due, Inc., priority 2022, published 2023):

Target: STING (Homo sapiens, UniProt Q86WV6, G230A/H232R/R293Q/R71H)
Experiment: STING reporter assay (luciferase) in THP1-Dual KO-IFNAR2 cells stimulated with 2′3′cGAMP
Conditions: read-out: Pharmaron, THP1_IFNAR2 STING 24 h Luci Normalized: GeoMean EC50, 2′3′cGAMP 15 μM final, luciferase reporter activity
Procedure: STING pathway activation by the compounds described herein was measured using TTIP1-Dual™ cells (KO-IFNAR2).
TTIP1-Dual™ KO-IFNAR2 Cells (obtained from invivogen) were maintained in RPMI, 10% FCS, 5 ml P/S, 2 mM L-glut, 10 mM Hepes, and 1 mM sodium pyruvate. Compounds were spotted in empty 384 well tissue culture plates (Greiner 781182) by Echo for a final concentration of 0.0017-100 μM. Cells were plated into the TC plates at 40 μL per well, 2×10E6 cells/mL. For activation with STING ligand, 2′3′cGAMP (MW 718.38, obtained from Invivogen), was prepared in Optimem media.
The following solutions were prepared for each 1×384 plate: • Solution A: 2 mL Optimem with one of the following stimuli: • […] • Solution B: 2 mL Optimem with […] Lipofectamine 2000→Incubate 5 min at RT
2 mL of solution A and 2 ml Solution B was mixed and incubated for 20 min at room temperature (RT). […] Luciferase reporter activity was then measured. EC50 values were calculated by using standard methods known in the art.
Luciferase reporter assay: 10 μL of supernatant from the assay was transferred to white 384-plate with flat bottom and squared wells. […] Luminescence was measured on a Platereader (e.g., Spectramax I3X (Molecular Devices GF3637001)).
Luciferase reporter activity was then measured. EC50 values were calculated by using standard methods known in the art.

With O=C(Nc1c[nH]c2ccc(OCCc3ccc(C(F)(F)F)cc3)cc12)C1C2COCC21 (stereo not shown) the EC50 was 40 to 200 nM.

Structures were worked out from names or drawings and are uncertain.
